Data as given in patent publication US20260248963A1, “COMPOSITIONS FOR TREATING CANCER WITH KRAS MUTATIONS AND USES THEREOF” (AADIGEN, LLC, priority 2023, published 2026).
For part of these data: At least one structure is not confirmed: it was looked up by name or label, or the drawing left a doubt. Some of these results come from one statement about several compounds together.

Assays:
[1] = in human; one range stated for both drugs; cited from earlier work
p-ERK = assay: Western blot of Erk phosphorylation in H-358 resistant clones; assay type: cell-based; conditions: 48 h post transfection, FIG. 2B

SMILES	half-life [1] [h]	Level of p-ERK / ERK phosphorylation (western blot) (p-ERK)
C=CC(=O)N1CCN(c2nc(=O)n(-c3c(C)ccnc3C(C)C)c3nc(-c4c(O)cccc4F)c(F)cc23)[C@@H](C)C1 [Sotorasib]	5.5 to 24	impact of sororasib and adagrasib on ERK phosphorylation is strongly reduced
C=C(F)C(=O)N1CCN(c2nc(OC[C@@H]3CCCN3C)nc3c2CCN(c2cccc4cccc(Cl)c24)C3)C[C@@H]1CC#N [Adagrasib]	5.5 to 24	
